Experiment [1] deals with T1, FLAG-tagged mULK1 (mULK1-3×FLAG) (mouse) (UniProt O70405).
T1 sequence: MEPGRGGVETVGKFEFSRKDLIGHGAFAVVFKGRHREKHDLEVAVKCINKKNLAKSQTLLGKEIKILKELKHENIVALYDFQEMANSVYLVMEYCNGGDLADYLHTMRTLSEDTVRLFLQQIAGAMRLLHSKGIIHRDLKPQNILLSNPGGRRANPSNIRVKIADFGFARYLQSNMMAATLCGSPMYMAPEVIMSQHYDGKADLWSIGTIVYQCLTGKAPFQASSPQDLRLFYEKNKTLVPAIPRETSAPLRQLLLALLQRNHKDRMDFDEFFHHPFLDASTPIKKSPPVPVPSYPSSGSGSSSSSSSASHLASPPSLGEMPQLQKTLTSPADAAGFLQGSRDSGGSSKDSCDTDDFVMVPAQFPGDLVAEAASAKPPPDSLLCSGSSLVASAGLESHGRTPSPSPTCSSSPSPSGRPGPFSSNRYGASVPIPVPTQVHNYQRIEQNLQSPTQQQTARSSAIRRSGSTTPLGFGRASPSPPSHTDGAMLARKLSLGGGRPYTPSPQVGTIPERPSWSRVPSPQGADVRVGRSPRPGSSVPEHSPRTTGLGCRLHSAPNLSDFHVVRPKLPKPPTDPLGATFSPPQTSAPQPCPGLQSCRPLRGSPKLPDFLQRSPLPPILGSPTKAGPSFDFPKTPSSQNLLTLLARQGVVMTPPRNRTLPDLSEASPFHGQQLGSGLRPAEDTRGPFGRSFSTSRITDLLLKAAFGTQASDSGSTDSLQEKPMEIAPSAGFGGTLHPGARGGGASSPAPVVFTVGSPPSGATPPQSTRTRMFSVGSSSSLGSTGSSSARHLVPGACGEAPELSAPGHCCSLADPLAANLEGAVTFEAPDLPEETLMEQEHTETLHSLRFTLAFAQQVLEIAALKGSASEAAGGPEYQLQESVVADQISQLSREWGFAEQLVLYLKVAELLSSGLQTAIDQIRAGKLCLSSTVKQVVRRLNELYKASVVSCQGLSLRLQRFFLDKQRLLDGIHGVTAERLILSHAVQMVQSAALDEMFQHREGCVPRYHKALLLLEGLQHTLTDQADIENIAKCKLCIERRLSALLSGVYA
Briefly: co-IP.

Amino acid sequences for entries named in this document (tags omitted).
UniProt Q8TDY2: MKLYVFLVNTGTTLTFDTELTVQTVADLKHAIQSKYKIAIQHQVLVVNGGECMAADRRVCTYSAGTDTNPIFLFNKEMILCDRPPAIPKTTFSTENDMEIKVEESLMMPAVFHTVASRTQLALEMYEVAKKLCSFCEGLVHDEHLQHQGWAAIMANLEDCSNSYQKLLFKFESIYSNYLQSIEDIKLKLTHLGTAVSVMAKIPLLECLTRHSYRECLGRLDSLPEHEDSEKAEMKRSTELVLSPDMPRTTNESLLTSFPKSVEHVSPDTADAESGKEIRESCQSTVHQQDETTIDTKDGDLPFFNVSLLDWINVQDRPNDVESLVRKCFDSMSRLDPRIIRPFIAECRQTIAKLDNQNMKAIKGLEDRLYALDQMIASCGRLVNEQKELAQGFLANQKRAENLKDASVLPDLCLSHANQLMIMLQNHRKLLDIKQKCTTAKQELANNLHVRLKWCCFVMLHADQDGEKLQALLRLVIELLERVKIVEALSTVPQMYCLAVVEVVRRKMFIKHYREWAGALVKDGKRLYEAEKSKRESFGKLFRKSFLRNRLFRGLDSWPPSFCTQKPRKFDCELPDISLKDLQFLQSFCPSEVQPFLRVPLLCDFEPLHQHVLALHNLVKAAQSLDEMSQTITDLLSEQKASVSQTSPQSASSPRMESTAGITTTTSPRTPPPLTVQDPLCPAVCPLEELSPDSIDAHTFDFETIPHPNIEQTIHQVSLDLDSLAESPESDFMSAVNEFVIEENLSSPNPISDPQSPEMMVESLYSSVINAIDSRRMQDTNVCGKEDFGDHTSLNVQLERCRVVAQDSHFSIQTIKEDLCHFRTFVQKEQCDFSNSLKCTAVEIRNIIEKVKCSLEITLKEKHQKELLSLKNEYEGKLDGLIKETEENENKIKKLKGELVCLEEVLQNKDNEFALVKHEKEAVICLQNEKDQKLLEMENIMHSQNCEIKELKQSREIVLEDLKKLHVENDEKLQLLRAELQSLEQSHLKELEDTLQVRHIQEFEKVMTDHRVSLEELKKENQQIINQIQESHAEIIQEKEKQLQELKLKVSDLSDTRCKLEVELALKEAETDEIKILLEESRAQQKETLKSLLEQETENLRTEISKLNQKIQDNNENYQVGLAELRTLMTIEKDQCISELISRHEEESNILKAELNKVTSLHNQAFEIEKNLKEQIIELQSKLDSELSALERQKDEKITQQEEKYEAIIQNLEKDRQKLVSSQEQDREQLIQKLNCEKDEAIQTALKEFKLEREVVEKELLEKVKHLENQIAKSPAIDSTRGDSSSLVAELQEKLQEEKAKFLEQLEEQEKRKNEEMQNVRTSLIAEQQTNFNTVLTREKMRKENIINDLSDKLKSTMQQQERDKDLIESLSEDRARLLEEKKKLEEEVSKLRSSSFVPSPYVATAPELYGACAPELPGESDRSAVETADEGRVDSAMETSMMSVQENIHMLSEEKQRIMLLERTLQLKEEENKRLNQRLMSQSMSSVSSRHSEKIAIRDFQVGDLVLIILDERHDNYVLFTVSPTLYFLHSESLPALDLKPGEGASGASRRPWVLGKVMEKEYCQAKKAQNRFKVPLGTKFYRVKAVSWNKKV
UniProt P28482: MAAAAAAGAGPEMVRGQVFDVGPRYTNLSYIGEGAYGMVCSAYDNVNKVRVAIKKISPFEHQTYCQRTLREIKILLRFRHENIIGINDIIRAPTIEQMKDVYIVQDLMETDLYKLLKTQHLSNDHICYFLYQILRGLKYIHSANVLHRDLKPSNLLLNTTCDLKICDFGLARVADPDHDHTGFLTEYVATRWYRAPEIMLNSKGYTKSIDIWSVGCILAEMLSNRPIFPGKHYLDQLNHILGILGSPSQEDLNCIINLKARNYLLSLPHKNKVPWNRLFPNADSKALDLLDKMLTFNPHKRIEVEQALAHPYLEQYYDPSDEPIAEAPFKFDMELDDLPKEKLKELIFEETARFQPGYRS
UniProt P27361: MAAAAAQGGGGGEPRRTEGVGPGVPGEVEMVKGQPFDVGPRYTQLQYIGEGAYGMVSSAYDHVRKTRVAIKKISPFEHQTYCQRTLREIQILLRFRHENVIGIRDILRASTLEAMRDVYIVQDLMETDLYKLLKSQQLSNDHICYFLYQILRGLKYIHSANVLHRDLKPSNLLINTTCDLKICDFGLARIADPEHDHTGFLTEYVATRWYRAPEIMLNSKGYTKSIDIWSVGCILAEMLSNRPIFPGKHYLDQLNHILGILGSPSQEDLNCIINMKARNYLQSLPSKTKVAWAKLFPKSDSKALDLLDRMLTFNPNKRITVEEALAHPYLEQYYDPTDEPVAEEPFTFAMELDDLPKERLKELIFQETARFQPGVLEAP
UniProt P14635: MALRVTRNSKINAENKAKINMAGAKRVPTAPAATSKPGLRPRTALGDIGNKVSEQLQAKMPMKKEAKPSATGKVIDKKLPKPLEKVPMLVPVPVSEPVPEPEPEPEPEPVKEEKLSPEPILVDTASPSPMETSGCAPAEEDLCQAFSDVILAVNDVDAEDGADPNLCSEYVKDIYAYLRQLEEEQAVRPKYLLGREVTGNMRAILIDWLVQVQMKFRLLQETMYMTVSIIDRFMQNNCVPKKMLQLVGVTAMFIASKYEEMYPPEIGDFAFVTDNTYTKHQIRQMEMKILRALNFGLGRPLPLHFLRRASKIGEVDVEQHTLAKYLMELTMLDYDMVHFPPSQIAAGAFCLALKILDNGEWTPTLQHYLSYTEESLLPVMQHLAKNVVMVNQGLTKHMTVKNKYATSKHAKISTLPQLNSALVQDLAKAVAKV

For experiment [2], the target named is T2, FLAG-tagged ATG13 (human) (UniProt O75143).
T2 sequence: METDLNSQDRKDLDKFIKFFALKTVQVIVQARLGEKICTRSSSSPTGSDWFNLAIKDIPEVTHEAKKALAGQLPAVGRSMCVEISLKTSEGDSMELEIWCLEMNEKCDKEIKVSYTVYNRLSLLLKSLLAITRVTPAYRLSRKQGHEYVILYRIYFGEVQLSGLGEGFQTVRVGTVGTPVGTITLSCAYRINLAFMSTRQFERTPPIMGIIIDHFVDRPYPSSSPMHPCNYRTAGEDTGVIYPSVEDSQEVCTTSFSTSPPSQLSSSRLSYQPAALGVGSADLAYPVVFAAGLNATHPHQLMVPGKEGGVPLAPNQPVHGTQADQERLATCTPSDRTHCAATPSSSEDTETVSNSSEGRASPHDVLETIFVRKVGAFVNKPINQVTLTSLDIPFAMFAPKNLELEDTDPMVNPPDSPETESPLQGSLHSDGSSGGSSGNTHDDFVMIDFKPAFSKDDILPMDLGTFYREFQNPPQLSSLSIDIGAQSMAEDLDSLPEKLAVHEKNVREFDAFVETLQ
Description: co-IP.

Results are given in words; binding and its absence hold for the method and conditions named. In cells and extracts the contact can be indirect. Some binding calls cover weakened binding; strength is not graded here. Where a sequence is shown, tags or fusion partners need not be part of it.

For FIP200 (from UniProt Q8TDY2 1-1594), the binding result in experiment [1] is on record as “binds”. Consider “MAPK1 (from UniProt P28482 1-360) (enzyme)”, for which the binding result in experiment [1] was “no binding”. On the same count and under the same terms, under “MAPK3 (from UniProt P27361 1-379) (enzyme)” stands “no binding”. Consider cyclin B1 (from UniProt P14635 1-433), for which the binding entry in experiment [1] and in experiment [2] was “binds” in each case.

B1: Aurora A (enzyme, UniProt O14965 1-403)
chain: MDRSKENCISGPVKATAPVGGPKRVLVTQQFPCQNPLPVNSGQAQRVLCPSNSSQRIPLQAQKLVSSHKPVQNQKQKQLQATSVPHPVSRPLNNTQKSKQPLPSAPENNPEEELASKQKNEESKKRQWALEDFEIGRPLGKGKFGNVYLAREKQSKFILALKVLFKAQLEKAGVEHQLRREVEIQSHLRHPNILRLYGYFHDATRVYLILEYAPLGTVYRELQKLSKFDEQRTATYITELANALSYCHSKRVIHRDIKPENLLLGSAGELKIADFGWSVHAPSSRRTTLCGTLDYLPPEMIEGRMHDEKVDLWSLGVLCYEFLVGKPPFEANTYQETYKRISRVEFTFPDFVTEGARDLISRLLKHNPSQRPMLREVLEHPWITANSSKPSNCQNKESASKQS
Consider B1, for which the binding result in experiment [1] is reported as “no binding”.

Source of the values: doi:10.1101/634733.
